Type in all cases: physicochemical
Series [1] is described as follows: Circular dichroism wavelength scans. As to conditions: for θ208 / θ222: 15 μM, 4 °C. A general note: Circular dichroism is the unequal absorption of left and right circularly polarised light.
Series [2] can be described thus: Passive microrheology (multiple particle tracking). The settings on record: 2 mM, 4 °C. Here is the method: Microrheology. Protein was concentrated to 2 mM, as measured by BCA assay, and immediately aliquoted 27.7 μL into a 200 μL PCR tube. 1% v/v (or 0.3 μL) of […] red polystyrene fluorometric beads (FluoSpheres) were then added to the sample. A glass capillary tube was then loaded with sample by capillary action and sealed to prevent evaporation while being affixed to a microscopy slide using two-component fast-curing epoxy (JB Weld). Samples were then imaged at 0 h as a starting measurement and then every 12 h using a Leica DMI4000b inverted microscope equipped with a Leica DFC310 FX 1.4 megapixel camera at 40× magnification with 2×2 binning. Between imaging, slides were incubated on a rotisserie at 8 rpm to prevent sedimentation of the fluorometric beads. Each image series was recorded for a total of 300 frames with a lag time (i) of 0.037 s between each frame. Relaxation exponents i.e. the logarithmic slopes of particle mean-squared displacements (MSDs) with respect to lag time as determined by multiple particle tracking (MPT) analysis were used to determine when equilibration of the hydrogel was complete and measurements were no longer recorded (60 h in this case). Images were stacked and converted to grayscale in MATLAB (Mathworks, R2021a) using code developed in-house, with MPT then being employed using MATLAB code developed and modified by Dufresene, Kilfoil, Blair, and O'Neill as described previously.
Gelation kinetics of the hydrogels were assessed using passive microrheology (FIG. 61a-e). Time to gelation was measured immediately after concentration to 2 mM at 4° C. by incubating with 1 μm fluorescent tracer beads added to the protein in solution state at a final concentration of 1% (v/v). […] Mean square displacements (MSDs) of bead trajectories were analyzed periodically per the span of respective protein gelation times. An initial MSD-τ curve corresponding to a solution at 1.00 μm^2 s^−1 (consistent with Brownian motion) was used as the master solution curve and the final MSD-τ curve measured per protein gelation was selected as the master gel curve. Intermediate MSD-τ curves measured were superimposed onto either the master solution or master gel curve using horizontal and vertical shift factors, a and b, respectively. The window of sol-gel transition was determined between where a divergence in superposition occurred for each protein gelation.
Microrheology. Microrheology was used to assess gelation kinetics as described previously. Immediately after concentration to 2 mM, 29.7 uL were aliquoted with 0.3 uL of 1 um diameter FluoSpheres and loaded into glass capillary tubes (VitroCom). Samples were then imaged using an inverted fluorescent microscope (ZEISS Microscopy) at 40× magnification with 2×2 binning. Samples were incubated at 4° C. on a rotisserie at 8 rpm between measurements and imaged incrementally at select time points. […] Images were stacked, converted to greyscale, and analyzed with multiple particle tracking (MPT) in MATLAB (Mathworks, R2021a). Prior to other experiments of hydrogels in the gel state, microrheology here was used to confirm its complete transition.

Series [3] in a line: ATR-FTIR peak deconvolution of secondary structure. The settings on record: 2 mM. On the procedure:
Attenuated Total Reflectance-Fourier Transform Infrared Spectroscopy. Secondary structure of protein fiber variants was confirmed using attenuated total reflectance-Fourier transform infrared (ATR-FTIR) spectroscopy using the Nicolet 6700 Fourier Transform Infrared Spectrometer equipped with a diamond ATR accessory and a mercury cadmium telluride (MCT)-A detector. Spectra were collected for 5 μL of 500 μM protein from 4000-400 cm^−1 with 0.5 cm^−1 increments at room temperature (RT). For CCM bound protein, protein was bound at a final concentration of 500 μM and saturated with CCM as determined by fluorescent spectroscopic drug binding with a final 1% v/v DMSO. Sample spectra were normalized using buffer background and analyzed from 1700-1600 cm^−1 corresponding to the amide I region. Peaks were deconvoluted using Gaussian functions in PeakFit software until the goodness of fit reached r^2≥0.99. Peaks were associated with secondary structure were determined by methods known in the art.
(§1) Attenuated Total Reflectance-Fourier Transform Infrared Spectroscopy. Secondary structure of Q2 protein was confirmed using attenuated total reflectance-Fourier transform infrared (ATR-FTIR) spectroscopy using the Nicolet 6700 Fourier Transform Infrared Spectrometer equipped with a diamond ATR accessory and a mercury cadmium telluride (MCT)-A detector. Spectra were collected for 5 μL of 2 mM protein from 4000-400 cm^−1 with 0.5 cm^−1 increments. Sample spectra were normalized using buffer background and analyzed from 1700-1600 cm^−1 corresponding to the amide I region. Peaks were deconvoluted using Gaussian functions in PeakFit software until the goodness of fit reached r^2>0.99.
as §1, with “of Q2LTF and QLTF” for “of Q2”, “using a” for “using the”, “of 1” for “of 2”, “with 4.0” for “with 0.5”, “reached r^2≥0.99.” for “reached r^2>0.99.”
Attenuated Total Reflectance-Fourier Transform Infrared Spectroscopy. Secondary structure before (solution) and after gelation (gel) was also assessed by peak deconvolution of attenuated total reflectance-Fourier transform infrared (ATR-FTIR) spectra. ATR-FTIR measurements were performed using a Nicolet 6700 Fourier Transform Infrared Spectrometer equipped with a mercury cadmium telluride (MCT)-A detector. Spectra were collected for 5 μL samples of protein at 2 mM from 4000-400 cm^−1 with a 4.0 cm^−1 resolution, normalized, and buffer-subtracted prior to analysis from 1700-1600 cm^−1, corresponding to the amide I region. ATR-FTIR measurements were performed immediately after concentration to 2 mM for solution measurements and after. Peaks were deconvoluted using Gaussian functions in PeakFit software until the goodness of fit reached r^2≥0.99.

Several values for one entry are separate records, joined by “and”; a condition that tells them apart may be missing. Identical values can stand only once.

Turning to “Q7: Q hydrogel variant from trimodal Monte Carlo search, SEQ ID NO: 16 (MRGSHHHHHHGSIEGRVKEMTFIKKTIEQQAEEMKEINKAIHDIRHALENISKK) [Protein Q7]”, in series [1] (Gel), the θ222/θ208 amounted to 1.2 ± 0.1, the θ208 was −16,000 ± 2,000 mdeg · cm^2 · dmol^−1 and the θ222 is −15,000 ± 1,000 mdeg · cm^2 · dmol^−1. Also, in series [1] (Solution), the θ208 is −16,000 ± 1,000 mdeg · cm^2 · dmol^−1 and the θ222 is −15,000 ± 1,000 mdeg · cm^2 · dmol^−1. In series [1] (solution), the “MRE minimum at 208 nm” value is −15,700±1,000 deg cm^2 dmol^−1, the “MRE minimum at 222 nm” value is −15,000±1,200 deg cm^2 dmol^−1 and the θ222/θ208 worked out at 1.0 ± 0.0. Further, in series [2], the “critical gelation time, tc (tgel)” value is 37.1 ± 0.1 h and ~37 h; the “critical relaxation exponent, nc” value was 0.58 ± 0.0. In series [3] (Gel), the “Turns/Coils (%)” value is 29.4 ± 6.8%, the “α-helix (%)” value amounted to 32.9 ± 6.3% and the “β-sheet(%)” value was found to be 37.6 ± 4.4%. In series [3] (Solution), the “Turns/Coils (%)” value was found to be 27.0 ± 8.5%, the “α-helix (%)” value worked out at 27.8 ± 7.8% and the “β-sheet(%)” value is 40.6 ± 16.0%.

With “Q6: Q hydrogel variant from trimodal Monte Carlo search, SEQ ID NO: 15 (MRGSHHHHHHGSIEGRVKEITFIKKQIEQIAEEMKEINKAIHDIRHALENISKK) [Protein Q6]”, in series [1] (Gel), the θ222/θ208 was 1.5 ± 0.1, the θ208 is −16,000 ± 1,000 mdeg · cm^2 · dmol^−1 and the θ222 is −16,000 ± 1,000 mdeg · cm^2 · dmol^−1. For the same substance, in series [1] (Solution), the θ208 is on record as −25,000 ± 6,000 mdeg · cm^2 · dmol^−1 and the θ222 was −27,000 ± 6,000 mdeg · cm^2 · dmol^−1. Besides, in series [1] (solution), the “MRE minimum at 208 nm” value is recorded as −25,000±6,100 deg cm^2 dmol^−1, the “MRE minimum at 222 nm” value is recorded as −26,800±6,000 deg cm^2 dmol^−1 and the θ222/θ208 is listed as 1.1 ± 0.0. In series [2], the “critical gelation time, tc (tgel)” value was 48.3 ± 1.7 h and ~48 h; the “critical relaxation exponent, nc” value worked out at 0.60±0.03. In addition, in series [3] (Gel), the “Turns/Coils (%)” value is on record as 19.3 ± 2.5%, the “α-helix (%)” value amounted to 33.8 ± 1.6% and the “β-sheet(%)” value is listed as 46.9 ± 2.6%. Further, in series [3] (Solution), the “Turns/Coils (%)” value stood at 26.7 ± 7.6%, the “α-helix (%)” value is given as 27.4 ± 6.8% and the “β-sheet(%)” value was found to be 57.6 ± 2.1%.
